Experimental data reported in the supplement of paper PMC10849652.
This is one part of the list.

Amino acid sequences for entries named in this document (tags omitted). A change or cut given only in a name is not applied to a line headed by its entry.
UniProt P30520: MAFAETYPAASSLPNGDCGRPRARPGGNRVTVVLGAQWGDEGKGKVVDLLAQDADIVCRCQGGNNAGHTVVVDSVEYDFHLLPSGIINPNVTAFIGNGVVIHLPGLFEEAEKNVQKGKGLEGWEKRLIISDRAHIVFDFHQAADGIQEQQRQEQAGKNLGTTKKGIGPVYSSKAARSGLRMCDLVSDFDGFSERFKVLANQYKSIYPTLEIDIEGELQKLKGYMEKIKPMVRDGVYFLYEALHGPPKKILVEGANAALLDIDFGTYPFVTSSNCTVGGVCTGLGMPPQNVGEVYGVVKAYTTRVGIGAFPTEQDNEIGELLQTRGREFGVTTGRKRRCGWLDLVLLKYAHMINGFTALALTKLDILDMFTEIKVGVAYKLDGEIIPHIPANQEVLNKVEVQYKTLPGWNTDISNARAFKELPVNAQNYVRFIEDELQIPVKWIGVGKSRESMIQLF
UniProt Q562R1, whole entry, looked up: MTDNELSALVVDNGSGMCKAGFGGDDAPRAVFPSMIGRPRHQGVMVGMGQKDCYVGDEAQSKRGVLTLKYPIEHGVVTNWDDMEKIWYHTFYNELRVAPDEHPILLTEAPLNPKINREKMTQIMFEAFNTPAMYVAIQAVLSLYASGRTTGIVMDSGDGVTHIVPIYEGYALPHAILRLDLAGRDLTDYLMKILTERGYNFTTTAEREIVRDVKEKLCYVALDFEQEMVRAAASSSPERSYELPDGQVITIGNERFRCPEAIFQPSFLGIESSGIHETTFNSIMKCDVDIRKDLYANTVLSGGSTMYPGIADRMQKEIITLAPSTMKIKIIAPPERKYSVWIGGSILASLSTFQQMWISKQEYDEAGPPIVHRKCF
UniProt Q16186: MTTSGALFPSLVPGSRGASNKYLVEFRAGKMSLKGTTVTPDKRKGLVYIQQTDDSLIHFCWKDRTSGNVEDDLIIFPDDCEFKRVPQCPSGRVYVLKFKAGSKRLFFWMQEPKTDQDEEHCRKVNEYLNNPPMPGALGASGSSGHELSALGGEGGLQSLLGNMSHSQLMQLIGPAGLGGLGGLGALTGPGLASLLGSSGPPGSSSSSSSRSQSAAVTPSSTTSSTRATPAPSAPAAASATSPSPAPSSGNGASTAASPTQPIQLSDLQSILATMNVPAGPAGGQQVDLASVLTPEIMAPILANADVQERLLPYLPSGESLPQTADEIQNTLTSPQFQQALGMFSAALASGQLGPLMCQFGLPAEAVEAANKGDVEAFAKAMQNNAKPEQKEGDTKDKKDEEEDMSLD
UniProt Q9ULX6: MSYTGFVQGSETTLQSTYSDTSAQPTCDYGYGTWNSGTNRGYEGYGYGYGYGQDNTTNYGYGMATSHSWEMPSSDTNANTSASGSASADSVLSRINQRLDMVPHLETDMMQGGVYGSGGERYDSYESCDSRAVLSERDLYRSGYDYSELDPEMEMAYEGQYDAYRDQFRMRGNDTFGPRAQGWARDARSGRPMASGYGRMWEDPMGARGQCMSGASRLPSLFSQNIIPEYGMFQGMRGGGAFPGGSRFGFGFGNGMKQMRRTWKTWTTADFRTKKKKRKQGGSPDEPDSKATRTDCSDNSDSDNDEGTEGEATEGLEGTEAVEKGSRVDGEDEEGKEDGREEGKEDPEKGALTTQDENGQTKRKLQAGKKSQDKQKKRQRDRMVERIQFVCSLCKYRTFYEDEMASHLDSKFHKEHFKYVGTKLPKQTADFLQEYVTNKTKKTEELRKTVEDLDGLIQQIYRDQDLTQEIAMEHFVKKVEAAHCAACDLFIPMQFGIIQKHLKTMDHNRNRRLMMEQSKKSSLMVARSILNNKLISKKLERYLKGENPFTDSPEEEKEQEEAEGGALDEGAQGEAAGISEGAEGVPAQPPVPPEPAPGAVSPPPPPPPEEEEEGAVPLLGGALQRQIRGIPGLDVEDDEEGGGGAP
UniProt O60488: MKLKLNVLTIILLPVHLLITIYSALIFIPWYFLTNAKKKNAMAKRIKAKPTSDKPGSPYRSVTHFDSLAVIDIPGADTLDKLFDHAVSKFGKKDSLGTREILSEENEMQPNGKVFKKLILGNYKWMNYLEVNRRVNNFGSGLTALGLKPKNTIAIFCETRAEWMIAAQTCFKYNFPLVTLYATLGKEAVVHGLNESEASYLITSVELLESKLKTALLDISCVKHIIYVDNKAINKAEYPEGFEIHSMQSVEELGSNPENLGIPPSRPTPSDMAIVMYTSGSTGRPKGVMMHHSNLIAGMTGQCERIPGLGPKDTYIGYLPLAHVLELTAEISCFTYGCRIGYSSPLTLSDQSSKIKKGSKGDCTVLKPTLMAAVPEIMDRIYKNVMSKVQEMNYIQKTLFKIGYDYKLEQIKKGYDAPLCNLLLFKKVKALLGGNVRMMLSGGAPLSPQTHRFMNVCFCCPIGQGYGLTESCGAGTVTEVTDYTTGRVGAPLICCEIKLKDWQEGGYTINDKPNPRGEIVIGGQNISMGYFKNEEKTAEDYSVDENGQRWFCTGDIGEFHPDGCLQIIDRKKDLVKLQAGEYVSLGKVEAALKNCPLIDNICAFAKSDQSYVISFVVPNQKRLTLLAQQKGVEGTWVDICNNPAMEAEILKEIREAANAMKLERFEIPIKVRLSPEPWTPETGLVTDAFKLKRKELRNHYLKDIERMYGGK
UniProt P02771: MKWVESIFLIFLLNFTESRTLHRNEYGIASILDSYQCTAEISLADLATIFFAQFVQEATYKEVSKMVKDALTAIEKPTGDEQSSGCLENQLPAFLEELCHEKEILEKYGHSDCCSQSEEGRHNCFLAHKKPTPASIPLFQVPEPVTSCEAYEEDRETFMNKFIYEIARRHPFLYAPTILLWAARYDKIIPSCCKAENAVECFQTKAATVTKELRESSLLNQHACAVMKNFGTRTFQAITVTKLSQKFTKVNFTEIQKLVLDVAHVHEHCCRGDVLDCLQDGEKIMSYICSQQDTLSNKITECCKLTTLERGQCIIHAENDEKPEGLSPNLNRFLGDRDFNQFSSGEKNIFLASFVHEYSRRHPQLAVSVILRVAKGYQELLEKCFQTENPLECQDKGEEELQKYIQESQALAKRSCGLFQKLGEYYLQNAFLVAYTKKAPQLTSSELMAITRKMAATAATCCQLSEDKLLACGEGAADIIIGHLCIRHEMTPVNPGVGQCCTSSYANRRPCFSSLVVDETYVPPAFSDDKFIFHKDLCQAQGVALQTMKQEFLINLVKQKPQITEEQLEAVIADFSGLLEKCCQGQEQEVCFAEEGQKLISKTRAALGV
UniProt Q53FZ2: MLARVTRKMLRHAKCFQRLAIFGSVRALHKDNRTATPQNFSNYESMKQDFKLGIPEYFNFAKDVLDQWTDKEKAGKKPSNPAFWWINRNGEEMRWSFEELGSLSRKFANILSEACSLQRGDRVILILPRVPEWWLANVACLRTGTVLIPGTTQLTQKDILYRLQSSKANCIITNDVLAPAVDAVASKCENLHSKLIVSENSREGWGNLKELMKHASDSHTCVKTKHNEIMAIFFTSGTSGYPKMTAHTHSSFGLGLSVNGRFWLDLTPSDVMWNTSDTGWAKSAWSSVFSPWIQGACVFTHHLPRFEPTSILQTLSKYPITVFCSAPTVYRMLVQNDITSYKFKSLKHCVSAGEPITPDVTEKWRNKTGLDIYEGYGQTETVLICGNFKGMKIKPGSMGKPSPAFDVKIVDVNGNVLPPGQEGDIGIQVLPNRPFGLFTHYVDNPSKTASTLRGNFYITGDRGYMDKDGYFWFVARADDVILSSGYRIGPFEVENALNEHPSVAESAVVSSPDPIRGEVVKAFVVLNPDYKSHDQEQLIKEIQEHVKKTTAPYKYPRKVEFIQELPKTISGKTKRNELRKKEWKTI
UniProt P42330: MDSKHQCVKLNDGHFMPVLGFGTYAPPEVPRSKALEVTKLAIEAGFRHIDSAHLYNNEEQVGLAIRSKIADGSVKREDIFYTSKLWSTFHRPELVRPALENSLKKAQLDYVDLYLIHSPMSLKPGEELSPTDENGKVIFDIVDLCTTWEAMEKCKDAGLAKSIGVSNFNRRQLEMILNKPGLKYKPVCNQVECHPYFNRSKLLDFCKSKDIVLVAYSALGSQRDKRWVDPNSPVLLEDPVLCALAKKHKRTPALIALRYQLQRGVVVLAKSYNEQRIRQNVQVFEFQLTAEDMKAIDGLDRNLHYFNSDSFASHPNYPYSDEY
UniProt Q9GZN1, whole entry, looked up: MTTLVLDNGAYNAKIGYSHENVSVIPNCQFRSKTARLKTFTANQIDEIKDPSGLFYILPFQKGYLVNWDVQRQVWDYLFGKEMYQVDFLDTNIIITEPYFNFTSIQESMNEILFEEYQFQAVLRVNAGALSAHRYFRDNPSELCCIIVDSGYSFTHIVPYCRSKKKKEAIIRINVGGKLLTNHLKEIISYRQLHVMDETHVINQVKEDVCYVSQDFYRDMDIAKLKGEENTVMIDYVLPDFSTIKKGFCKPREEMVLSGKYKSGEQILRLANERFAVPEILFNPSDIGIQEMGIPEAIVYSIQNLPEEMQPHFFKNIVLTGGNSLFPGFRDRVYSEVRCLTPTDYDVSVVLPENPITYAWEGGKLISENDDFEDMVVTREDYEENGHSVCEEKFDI
UniProt Q9NRZ7: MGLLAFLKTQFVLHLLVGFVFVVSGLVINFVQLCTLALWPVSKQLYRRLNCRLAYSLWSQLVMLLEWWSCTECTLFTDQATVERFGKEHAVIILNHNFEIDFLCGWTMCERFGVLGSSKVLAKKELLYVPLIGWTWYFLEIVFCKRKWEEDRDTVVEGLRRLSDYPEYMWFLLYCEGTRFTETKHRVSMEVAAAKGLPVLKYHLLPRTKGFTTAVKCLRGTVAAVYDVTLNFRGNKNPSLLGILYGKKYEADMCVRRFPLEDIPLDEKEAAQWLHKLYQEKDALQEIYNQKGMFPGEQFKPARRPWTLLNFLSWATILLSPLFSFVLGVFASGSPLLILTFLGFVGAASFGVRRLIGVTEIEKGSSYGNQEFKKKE
UniProt Q92667: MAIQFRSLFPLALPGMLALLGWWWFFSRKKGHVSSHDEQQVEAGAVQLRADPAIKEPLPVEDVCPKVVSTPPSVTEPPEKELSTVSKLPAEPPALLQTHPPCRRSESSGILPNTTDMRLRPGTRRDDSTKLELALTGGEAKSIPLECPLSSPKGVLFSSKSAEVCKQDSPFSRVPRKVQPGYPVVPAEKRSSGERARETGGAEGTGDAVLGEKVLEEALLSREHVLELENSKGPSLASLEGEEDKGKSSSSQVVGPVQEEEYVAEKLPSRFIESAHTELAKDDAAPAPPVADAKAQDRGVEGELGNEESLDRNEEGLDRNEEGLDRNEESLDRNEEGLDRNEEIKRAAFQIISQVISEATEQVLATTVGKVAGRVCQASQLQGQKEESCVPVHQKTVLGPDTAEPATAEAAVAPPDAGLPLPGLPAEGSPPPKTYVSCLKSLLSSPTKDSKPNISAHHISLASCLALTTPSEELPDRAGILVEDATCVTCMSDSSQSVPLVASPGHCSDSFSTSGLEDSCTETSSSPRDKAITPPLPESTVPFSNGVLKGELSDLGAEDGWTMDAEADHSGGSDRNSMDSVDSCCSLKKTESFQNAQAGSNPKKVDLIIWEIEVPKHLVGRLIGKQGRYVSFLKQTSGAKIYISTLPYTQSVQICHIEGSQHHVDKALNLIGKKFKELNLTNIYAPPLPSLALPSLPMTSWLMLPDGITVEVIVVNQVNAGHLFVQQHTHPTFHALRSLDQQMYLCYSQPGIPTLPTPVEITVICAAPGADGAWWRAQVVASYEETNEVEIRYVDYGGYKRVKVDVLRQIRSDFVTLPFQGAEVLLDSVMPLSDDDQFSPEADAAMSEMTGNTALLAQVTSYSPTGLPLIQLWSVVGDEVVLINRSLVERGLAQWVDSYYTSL
UniProt O00170: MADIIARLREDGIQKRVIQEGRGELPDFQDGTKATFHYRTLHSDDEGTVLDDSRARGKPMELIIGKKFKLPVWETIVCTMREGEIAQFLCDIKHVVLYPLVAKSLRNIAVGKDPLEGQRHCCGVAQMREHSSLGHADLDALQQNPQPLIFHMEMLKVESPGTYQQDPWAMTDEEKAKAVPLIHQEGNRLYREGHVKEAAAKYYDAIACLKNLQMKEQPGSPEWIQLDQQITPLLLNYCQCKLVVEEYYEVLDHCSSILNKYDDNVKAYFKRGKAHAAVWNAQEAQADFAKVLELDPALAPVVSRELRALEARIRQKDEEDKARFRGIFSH
UniProt P11766: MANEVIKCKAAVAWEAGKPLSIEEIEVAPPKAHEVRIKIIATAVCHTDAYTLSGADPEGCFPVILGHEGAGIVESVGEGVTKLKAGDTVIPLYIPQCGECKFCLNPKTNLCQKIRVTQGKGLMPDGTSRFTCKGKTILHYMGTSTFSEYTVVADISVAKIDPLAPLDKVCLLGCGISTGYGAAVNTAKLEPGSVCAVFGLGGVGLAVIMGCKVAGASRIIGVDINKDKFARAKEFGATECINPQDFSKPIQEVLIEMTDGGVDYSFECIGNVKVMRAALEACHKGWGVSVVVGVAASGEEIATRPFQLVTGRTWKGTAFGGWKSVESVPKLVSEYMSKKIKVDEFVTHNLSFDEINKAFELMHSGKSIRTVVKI

What was measured:
Assay in all cases: log2 fold change, soluble protein after heating vs DMSO (PISA); higher = thermal stabilisation; K562 lysate, 10 uM; active = over 0.2 and 3.5 SD of the protein, either way, in both replicates (recomputed)
alvocidib = compound: CN1CC[C@H](c2c(O)cc(O)c3c(=O)cc(-c4ccccc4Cl)oc23)[C@H](O)C1 [alvocidib]
In short: (§1)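 Quantification was by TMTpro 16plex LC-MS/MS with equalised channel sums, applied to the supernatant after 21,000xg for 90 min. Samples were crude K562 extract at 1 mg/mL protein in PBS pH 7.4 with 1 mM MgCl2, treated with 10 μM compound for 30 min, heated for 3 min across 48°C-58°C, pooled and brought to 0.5% NP-40 at 4°C. Values are log-two fold changes in thermal stability relative to solvent controls, from duplicates.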

Tubastatin A = compound: CN1CCc2c(c3ccccc3n2Cc2ccc(C(=O)NO)cc2)C1 [Tubastatin A]
In short: as §1

[1] = compound: CNC(=O)C1=CC=CC=C1NC2=NC(=NC=C2Cl)NC3=C(C=C(C=C3)N4CCOCC4)OC
In short: as §1

defactinib = compound: CNC(=O)c1ccc(Nc2ncc(C(F)(F)F)c(NCc3nccnc3N(C)S(C)(=O)=O)n2)cc1 [defactinib]
In short: as §1

[2] = compound: CNc1nc(-c2ccc3c(N)n[nH]c3c2)cc(N2C[C@@H](C(=O)NC3CCCCC3)CC[C@H]2C)n1
In short: as §1

encorafenib = compound: COC(=O)N[C@@H](C)CNc1nccc(-c2cn(C(C)C)nc2-c2cc(Cl)cc(NS(C)(=O)=O)c2F)n1 [encorafenib]
In short: as §1

[3] = compound: COC(=O)[C@H](CCSC)NC(=O)C1=C(C=C(C=C1)NC[C@H](CS)N)C2=CC=CC=C2
In short: as §1

alisertib = compound: COc1cc(Nc2ncc3c(n2)-c2ccc(Cl)cc2C(c2c(F)cccc2OC)=NC3)ccc1C(=O)O [alisertib]
In short: as §1

[4] = compound: COc1cc2nc(-c3cc(F)ccc3O)nc(N[C@@H]3CNC[C@H]3C(C)(C)O)c2cc1OC
In short: as §1

gefitinib = compound: COc1cc2ncnc(Nc3ccc(F)c(Cl)c3)c2cc1OCCCN1CCOCC1 [gefitinib]
In short: as §1

Measured: log2 fold change

AK1 (UniProt P00568)
inactive: alvocidib 0.154 | Tubastatin A 0.009 | [1] -0.034 | defactinib -0.035 | [2] -0.007 | encorafenib -0.036 | [3] -0.07 | alisertib 0 | [4] 0.013 | gefitinib -0.019

AGTRAP (UniProt Q6RW13)
inactive: alvocidib -0.079 | Tubastatin A -0.06 | [1] -0.03 | defactinib -0.137 | [2] 0.109 | encorafenib 0.075 | [3] -0.087 | alisertib 0.032 | [4] -0.019 | gefitinib 0.045

ADSS2 (UniProt P30520)
inactive: alvocidib -0.036 | Tubastatin A 0.038 | [1] 0.014 | defactinib -0.02 | [2] 0.014 | encorafenib 0.011 | [3] -0.028 | alisertib -0.008 | [4] 0.005 | gefitinib 0.007

ACTBL2 (UniProt Q562R1)
inactive: alvocidib -0.083 | Tubastatin A -0.111 | [1] -0.01 | defactinib 0.093 | [2] -0.008 | encorafenib -0.226 | [3] 0.005 | alisertib -0.273 | [4] 0.009 | gefitinib -0.223

ADAM10 (UniProt O14672)
inactive: alvocidib 0 | Tubastatin A 0.017 | [1] 0.001 | defactinib -0.016 | [2] -0.067 | encorafenib 0.018 | [3] -0.048 | alisertib -0.047 | [4] 0.014 | gefitinib -0.044

ADRM1 (UniProt Q16186)
inactive: alvocidib 0.009 | Tubastatin A -0.064 | [1] -0.027 | defactinib 0.003 | [2] 0.011 | encorafenib -0.033 | [3] 0.118 | alisertib 0.032 | [4] -0.001 | gefitinib -0.009

AKAP8L (UniProt Q9ULX6)
inactive: alvocidib -0.003 | Tubastatin A -0.183 | [1] 0.008 | defactinib 0.003 | [2] -0.109 | encorafenib 0.059 | [3] -0.032 | alisertib 0.043 | [4] 0.011 | gefitinib 0.009

ACSL4 (UniProt O60488)
inactive: alvocidib 0.023 | Tubastatin A -0.06 | [1] 0.047 | defactinib 0.054 | [2] -0.034 | encorafenib 0.003 | [3] 0.073 | alisertib -0.017 | [4] 0.019 | gefitinib 0.014

AFP (UniProt P02771)
inactive: alvocidib 0.033 | Tubastatin A 0.016 | [1] 0.024 | defactinib 0.006 | [2] 0.035 | encorafenib -0.005 | [3] -0.014 | alisertib -0.002 | [4] -0.045 | gefitinib 0.032

ACSM3 (UniProt Q53FZ2)
inactive: alvocidib 0.008 | Tubastatin A -0.01 | [1] -0.023 | defactinib 0.001 | [2] 0 | encorafenib -0.007 | [3] 0.093 | alisertib -0.019 | [4] 0.014 | gefitinib 0.013

AIFM2 (UniProt Q9BRQ8)
inactive: alvocidib -0.032 | Tubastatin A 0.044 | [1] 0.114 | defactinib 0.045 | [2] 0.099 | encorafenib 0.024 | [3] 0.107 | alisertib -0.032 | [4] -0.034 | gefitinib 0.038

ADD1 isoform 3 (UniProt P35611)
inactive: alvocidib 0.016 | Tubastatin A 0.007 | [1] -0.013 | defactinib 0.015 | [2] 0.031 | encorafenib 0.004 | [3] -0.034 | alisertib 0.03 | [4] 0.006 | gefitinib -0.01

AGTPBP1 (UniProt Q9UPW5)
inactive: alvocidib 0.034 | Tubastatin A 0.046 | [1] 0.024 | defactinib -0.058 | [2] -0.001 | encorafenib -0.014 | [3] -0.031 | alisertib 0.097 | [4] -0.039 | gefitinib -0.004

AKIRIN2 (UniProt Q53H80)
inactive: alvocidib 0.036 | Tubastatin A -0.199 | [1] -0.191 | defactinib -0.068 | [2] 0.092 | encorafenib 0.003 | [3] -0.16 | alisertib 0.016 | [4] -0.023 | gefitinib 0.049

AKR1C3 (UniProt P42330)
inactive: alvocidib 0.026 | Tubastatin A 0.073 | [1] -0.052 | defactinib 0.017 | [2] -0.211 | encorafenib -0.026 | [3] 0.022 | alisertib 0.056 | [4] 0.028 | gefitinib -0.003

ACTL8 (UniProt Q9H568)
inactive: alvocidib 0.039 | Tubastatin A 0.006 | [1] -0.005 | defactinib -0.122 | [2] -0.061 | encorafenib 0.021 | [3] 0.024 | alisertib -0.042 | [4] 0.003 | gefitinib -0.098

AHCY (UniProt P23526)
inactive: alvocidib -0.007 | Tubastatin A 0.012 | [1] 0.013 | defactinib -0.019 | [2] 0.019 | encorafenib -0.021 | [3] -0.068 | alisertib 0.006 | [4] 0.007 | gefitinib -0.002

ACTR6 (UniProt Q9GZN1)
inactive: alvocidib -0.064 | Tubastatin A -0.036 | [1] -0.074 | defactinib 0.072 | [2] -0.007 | encorafenib 0.022 | [3] 0.109 | alisertib 0.112 | [4] 0.047 | gefitinib 0.259

AGPAT3 isoform 3 (UniProt Q9NRZ7)
inactive: alvocidib -0.035 | Tubastatin A -0.079 | [1] 0.001 | defactinib -0.006 | [2] -0.009 | encorafenib 0.006 | [3] -0.076 | alisertib 0.05 | [4] 0.035 | gefitinib 0.006

ADD3 (UniProt Q9UEY8)
inactive: alvocidib -0.015 | Tubastatin A 0.082 | [1] 0.018 | defactinib 0.02 | [2] 0.007 | encorafenib 0.017 | [3] -0.022 | alisertib -0.007 | [4] 0.004 | gefitinib 0.002

AKAP1 (UniProt Q92667)
inactive: alvocidib 0.003 | Tubastatin A -0.034 | [1] 0.006 | defactinib 0.011 | [2] 0.013 | encorafenib -0.033 | [3] 0.086 | alisertib 0.004 | [4] 0.032 | gefitinib 0.018

2 successive records from above, for reference:
AIFM2 (UniProt Q9BRQ8)
inactive: alvocidib -0.032 | Tubastatin A 0.044 | [1] 0.114 | defactinib 0.045 | [2] 0.099 | encorafenib 0.024 | [3] 0.107 | alisertib -0.032 | [4] -0.034 | gefitinib 0.038

ADD1 isoform 3 (UniProt P35611)
inactive: alvocidib 0.016 | Tubastatin A 0.007 | [1] -0.013 | defactinib 0.015 | [2] 0.031 | encorafenib 0.004 | [3] -0.034 | alisertib 0.03 | [4] 0.006 | gefitinib -0.01

Further entries

AIP (UniProt O00170)
inactive: alvocidib 0.164 | Tubastatin A 0.003 | [1] 0.037 | defactinib 0.004 | [2] 0.015 | encorafenib -0.008 | [3] 0.043 | alisertib -0.039 | [4] -0.002 | gefitinib -0.032

ACTB, A0A2R8Y793
inactive: alvocidib 0.023 | Tubastatin A -0.038 | [1] 0.012 | defactinib 0.011 | [2] 0.024 | encorafenib -0.033 | [3] 0.02 | alisertib 0.007 | [4] 0.005 | gefitinib -0.039

AFG3L2 (UniProt Q9Y4W6)
inactive: alvocidib 0.049 | Tubastatin A 0.089 | [1] -0.029 | defactinib 0.023 | [2] -0.085 | encorafenib -0.007 | [3] 0.059 | alisertib 0.057 | [4] -0.025 | gefitinib -0.008

AFDN isoform 1 (UniProt P55196)
inactive: alvocidib 0.014 | Tubastatin A -0.039 | [1] 0 | defactinib -0.009 | [2] 0.012 | encorafenib 0.022 | [3] -0.022 | alisertib 0.005 | [4] -0.006 | gefitinib -0.031

ADD2 (UniProt P35612)
inactive: alvocidib -0.001 | Tubastatin A 0.031 | [1] 0.004 | defactinib -0.008 | [2] 0.008 | encorafenib -0.02 | [3] -0.026 | alisertib -0.015 | [4] 0.011 | gefitinib 0.01

AIDA (UniProt Q96BJ3)
inactive: alvocidib -0.011 | Tubastatin A 0.016 | [1] -0.022 | defactinib -0.02 | [2] 0.033 | encorafenib 0.001 | [3] 0 | alisertib 0.034 | [4] 0.008 | gefitinib 0.088

ADPRH (UniProt P54922)
inactive: alvocidib 0.006 | Tubastatin A 0.031 | [1] 0.003 | defactinib 0.09 | [2] 0.031 | encorafenib -0.156 | [3] 0.04 | alisertib -0.163 | [4] 0.062 | gefitinib -0.002

ADI1 (UniProt Q9BV57)
inactive: alvocidib -0.002 | Tubastatin A 0.004 | [1] -0.016 | defactinib 0.042 | [2] -0.128 | encorafenib -0.062 | [3] 0.029 | alisertib 0.023 | [4] 0.02 | gefitinib 0.043

ADH5 (UniProt P11766)
inactive: alvocidib 0.018 | Tubastatin A 0.042 | [1] -0.011 | defactinib -0.039 | [2] -0.009 | encorafenib -0.03 | [3] 0.016 | alisertib -0.004 | [4] 0.014 | gefitinib -0.014
